One data set concerns ME-180 cells. Kind of data set: Cancer cell proliferation assay, ME-180. Type of data set: cell-based, human. The settings on record: Table S8; ratio.
For the next data set, the system named is HCT116 cells. The data set is described as follows: Cancer cell proliferation assay, HCT116. Type of data set: cell-based, human. The settings on record: Table S8; ratio.

Structures are written as SMILES. No dose or concentration is given here for some results.

As to `C[C@@H]1O[C@@H](O[C@@H]2C=C3CC[C@@H]4[C@H](CC[C@]5(C)[C@@H](c6ccc(=O)oc6)CC[C@]45O)[C@@]3(C)CC2)[C@H](O)[C@H](O)[C@H]1O` [Proscillaridin A], the “HIF-1α–NanoLuc Activity/ME-180 3-Day Viability” value in the data set with ME-180 cells amounted to 0.5. The “HIF-1α–NanoLuc Activity/HCT116 3-Day Viability” value in the data set on HCT116 cells came out at 0.1.

Take `COc1c(C)c2c(c(O)c1C/C=C(\C)CCC(=O)OCCN1CCOCC1)C(=O)OC2` [Mycophenolate mofetil]: the “HIF-1α–NanoLuc Activity/ME-180 3-Day Viability” value with ME-180 cells stood at 0.9.

With `Cn1cnc2c(F)c(Nc3ccc(Br)cc3Cl)c(C(=O)NOCCO)cc21` [Selumetinib], in the data set on ME-180 cells, the “HIF-1α–NanoLuc Activity/ME-180 3-Day Viability” value is 5.5. In the data set with HCT116 cells, the “HIF-1α–NanoLuc Activity/HCT116 3-Day Viability” value amounted to 0.07.

Turning to `O=C(Nc1ccc([N+](=O)[O-])cc1Cl)c1cc(Cl)ccc1O` [Niclosamide], the “HIF-1α–NanoLuc Activity/HCT116 3-Day Viability” value in the data set on HCT116 cells worked out at 1.0.

For `C[C@H]1O[C@@H](O[C@H]2[C@@H](O)C[C@H](O[C@H]3[C@@H](O)C[C@H](O[C@H]4CC[C@@]5(C)[C@H](CC[C@@H]6[C@@H]5CC[C@]5(C)[C@@H](C7=CC(=O)OC7)CC[C@]65O)C4)O[C@@H]3C)O[C@@H]2C)C[C@H](O)[C@@H]1O` [Digitoxin], the “HIF-1α–NanoLuc Activity/ME-180 3-Day Viability” value with ME-180 cells is 1.2. Further, in the data set with HCT116 cells, the “HIF-1α–NanoLuc Activity/HCT116 3-Day Viability” value turned out to be 0.05.

For `Nc1ncn([C@@H]2O[C@H](CO)[C@@H](O)[C@H]2O)c(=O)n1` [5-Azacitidine], in the data set with ME-180 cells, the “HIF-1α–NanoLuc Activity/ME-180 3-Day Viability” value is listed as 0.08. The “HIF-1α–NanoLuc Activity/HCT116 3-Day Viability” value in the data set on HCT116 cells came out at 0.1.

Regarding `C[C@H]1O[C@@H](O[C@H]2CC[C@@]3(C)[C@H](CC[C@@H]4[C@@H]3C[C@@H](O)[C@]3(C)[C@@H](C5=CC(=O)OC5)CC[C@]43O)C2)C[C@H](O)[C@@H]1O[C@H]1C[C@H](O)[C@H](O[C@H]2C[C@H](O)[C@H](O[C@@H]3O[C@H](CO)[C@@H](O)[C@H](O)[C@H]3O)[C@@H](C)O2)[C@@H](C)O1` [Deslanoside], the “HIF-1α–NanoLuc Activity/ME-180 3-Day Viability” value in the data set with ME-180 cells stood at 12. In addition, in the data set on HCT116 cells, the “HIF-1α–NanoLuc Activity/HCT116 3-Day Viability” value was 0.2.

`CC[C@@]1(O)C(=O)OCc2c1cc1n(c2=O)Cc2cc3ccccc3nc2-1` [Camptothecin]: the “HIF-1α–NanoLuc Activity/ME-180 3-Day Viability” value with ME-180 cells is 14. For the same compound, the “HIF-1α–NanoLuc Activity/HCT116 3-Day Viability” value with HCT116 cells was determined as 1.5.

In the case of `CCCS(=O)(=O)Nc1ccc(F)c(C(=O)c2c[nH]c3ncc(-c4ccc(Cl)cc4)cc23)c1F` [Vemurafenib], in the data set with ME-180 cells, the “HIF-1α–NanoLuc Activity/ME-180 3-Day Viability” value was 0.9. The “HIF-1α–NanoLuc Activity/HCT116 3-Day Viability” value in the data set with HCT116 cells was 0.4.

For `CCN(CC)CCNC(=O)c1c(C)[nH]c(/C=C2\C(=O)Nc3ccc(F)cc32)c1C` [Sunitinib], the “HIF-1α–NanoLuc Activity/ME-180 3-Day Viability” value in the data set on ME-180 cells came out at 0.6.

Take `O=c1cc(N2CCOCC2)oc2c(-c3ccccc3)cccc12` [LY-294002]: the “HIF-1α–NanoLuc Activity/ME-180 3-Day Viability” value in the data set on ME-180 cells was 0.9.

For `CC(=O)Nc1cccc(-n2c(=O)n(C3CC3)c(=O)c3c(Nc4ccc(I)cc4F)n(C)c(=O)c(C)c32)c1` [Trametinib], the “HIF-1α–NanoLuc Activity/ME-180 3-Day Viability” value in the data set with ME-180 cells is listed as 50. Besides, the “HIF-1α–NanoLuc Activity/HCT116 3-Day Viability” value in the data set on HCT116 cells amounted to 5.

With `COC[C@H]1OC(=O)c2coc3c2[C@@]1(C)C1=C(C3=O)[C@@H]2CCC(=O)[C@@]2(C)C[C@H]1OC(C)=O` [Wortmannin], the “HIF-1α–NanoLuc Activity/ME-180 3-Day Viability” value in the data set with ME-180 cells is 0.1.

As for `Oc1cccc(-c2nc(N3CCOCC3)c3oc4ncccc4c3n2)c1` [PI-103], the “HIF-1α–NanoLuc Activity/ME-180 3-Day Viability” value in the data set with ME-180 cells is 2.5.

With `O=C1c2c(O)ccc(O)c2C(=O)c2c(NCCNCCO)ccc(NCCNCCO)c21` [Mitoxantrone], in the data set with ME-180 cells, the “HIF-1α–NanoLuc Activity/ME-180 3-Day Viability” value amounted to 69. Besides, the “HIF-1α–NanoLuc Activity/HCT116 3-Day Viability” value in the data set on HCT116 cells is on record as 0.7.

As for `C[C@@H]1O[C@@H](O[C@H]2C[C@@H](O)[C@]3(CO)[C@H]4[C@H](O)C[C@]5(C)[C@@H](C6=CC(=O)OC6)CC[C@]5(O)[C@@H]4CC[C@]3(O)C2)[C@H](O)[C@H](O)[C@H]1O` [Ouabain], the “HIF-1α–NanoLuc Activity/ME-180 3-Day Viability” value in the data set with ME-180 cells came to 1.1. Further, the “HIF-1α–NanoLuc Activity/HCT116 3-Day Viability” value in the data set with HCT116 cells is on record as 0.2.

Regarding `CC[C@@]1(O)C(=O)OCc2c1cc1n(c2=O)Cc2cc3c(CN(C)C)c(O)ccc3nc2-1` [Topotecan], the “HIF-1α–NanoLuc Activity/ME-180 3-Day Viability” value in the data set with ME-180 cells came to 21. The “HIF-1α–NanoLuc Activity/HCT116 3-Day Viability” value with HCT116 cells is listed as 0.5.

As to `O=C(NOCC1CC1)c1ccc(F)c(F)c1Nc1ccc(I)cc1Cl` [PD 184352], in the data set with HCT116 cells, the “HIF-1α–NanoLuc Activity/HCT116 3-Day Viability” value is given as 1.0.

For the origin of these results see PMC4884984, “Identification of approved and investigational drugs that inhibit hypoxia-inducible factor-1 signaling” (Oncotarget, 2016).
